The text below walks through data of patent US5109111A (The Salk Institute for Biological Studies, priority 1990, dated 1992).

Some peptides are written in HELM: one residue between dots, names in brackets for other building blocks, links after the first $.

A short description of the series: general procedure: Boc solid-phase peptide synthesis; MBHA hydrochloride resin (Bachem), substitution about 0.1 to 0.7 mmoles/gm; DCC; ONp active ester with HOBt for Asn or Gln. The note with it: whole synthesis, isocratic reversed-phase HPLC (Waters, C18); thin layer chromatography.

Consider “H-Phe-His-Leu-Leu-Arg-Glu-Val-Leu-Glu-Nle-Ala-Arg-Ala-G lu-Gln-Leu-Ala-Gln-Gln-Ala-His-Ser-Asn-Arg-Arg-Leu-N le-Glu-Ile-Ile-NH2”, for which the “final purity (method not given)” value is “about 98%”.

“PEPTIDE1{[dF].H.L.L.R.E.V.L.E.[Nle].A.R.A.E.Q.L.A.Q.Q.A.H.S.N.R.K.L.[Nle].E.I.I.[am]}$$$$V2.0”: the “final purity (method not given)” value was “about 95%”.

On to “PEPTIDE1{D.L.T.F.H.L.L.R.E.V.L.E.[Nle].A.R.A.E.Q.L.A.Q.Q.A.H.S.N.R.R.L.[Nle].E.I.I.[am]}$$$$V2.0”, for which the “final purity (method not given)” value is “about 99%”.

As for “PEPTIDE1{[dF].H.L.L.R.E.V.L.E.[Nle].A.R.A.E.Q.L.A.Q.Q.A.H.S.N.R.R.L.[Nle].E.I.I.[am]}$$$$V2.0”, the “final purity (method not given)” value was “about 99%”.

“PEPTIDE1{F.H.L.L.R.E.V.L.E.[Nle].A.R.A.E.Q.L.A.Q.Q.A.H.S.N.R.K.L.[Nle].E.I.I.[am]}$$$$V2.0”: the “final purity (method not given)” value is given as “about 99%”.

For “PEPTIDE1{[dF].H.L.L.R.E.V.L.E.[Nle].A.R.A.E.Q.L.A.Q.Q.A.H.S.N.R.L.L.[Nle].E.I.I.[am]}$$$$V2.0”, the “final purity (method not given)” value is “about 68.2%”.

“PEPTIDE1{[dF].H.L.L.R.E.V.L.E.[Nle].A.R.A.E.Q.L.A.Q.Q.A.H.S.N.R.K.[CML].[Nle].E.I.I.[am]}$$$$V2.0”: the “final purity (method not given)” value is “about 99%”.

Consider “PEPTIDE1{D.L.T.F.H.L.L.R.E.V.L.E.[Nle].A.R.A.E.Q.L.A.Q.Q.A.H.S.N.R.K.L.[Nle].E.I.I.[am]}$$$$V2.0”, for which the “final purity (method not given)” value was “about 99%”.

For the substance “H-D-2Nal-His-Leu-Leu-Arg-Glu-Val-Leu-Glu-Nle-Ala-Arg-A la-Glu-Gln-Leu-Ala-Gln-Gln-Ala-His-Leu-Asn-Arg-Lys-Leu -Nle-Glu-Ile-Ile-NH2”, the “final purity (method not given)” value is “about 60%”.
